The text below walks through data of publication PMC12285722, “M6A-dependent RNA condensation underlies FUS autoregulation and can be harnessed for ALS therapy development”.

For at least one entry, the source does not settle the construct or the ends of the probe. For part of these data: The comparison behind a weaker result is the experiment's own reference, which may not be listed here. Tags and fusion partners may be left off the protein sequences shown. For part of these data: Where cells or extracts were used, other partners may take part. For part of these data: At least one verdict was read from the data and is not stated in words by the source.

In data set [1] the target is T1, GFP-FUS (UniProt P35637).
T1 sequence (looked up, limits assumed): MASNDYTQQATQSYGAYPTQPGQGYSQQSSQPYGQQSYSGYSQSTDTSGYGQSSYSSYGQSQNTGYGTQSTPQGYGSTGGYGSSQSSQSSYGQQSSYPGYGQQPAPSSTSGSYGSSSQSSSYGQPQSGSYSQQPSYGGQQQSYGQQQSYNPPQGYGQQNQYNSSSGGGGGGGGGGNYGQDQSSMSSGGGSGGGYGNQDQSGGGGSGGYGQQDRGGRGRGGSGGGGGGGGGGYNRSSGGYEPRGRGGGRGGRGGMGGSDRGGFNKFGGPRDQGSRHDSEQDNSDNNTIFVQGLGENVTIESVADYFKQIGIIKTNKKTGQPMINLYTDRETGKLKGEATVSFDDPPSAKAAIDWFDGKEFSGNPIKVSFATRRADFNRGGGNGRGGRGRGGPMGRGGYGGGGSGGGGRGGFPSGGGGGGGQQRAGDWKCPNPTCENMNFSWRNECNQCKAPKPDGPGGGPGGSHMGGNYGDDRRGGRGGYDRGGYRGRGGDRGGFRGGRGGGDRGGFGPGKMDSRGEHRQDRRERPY
Nature of the data set: confocal nanoscanning (CONA), bead pull-down. The note with it: HeLa lysate, CONA: lysate in 1% Triton X-100/PBS, beads washed in 20 mM Hepes pH 7.5, 0.3 M NaCl, 0.01% Triton X-100, 5 mM MgCl2, 2 h RT, protein in a lysate after overexpression, protein details: GFP, label: 5' Cy5, 3' biotin-TEG.

Data set [2] concerns the target T2, YTHDF1-GFP (human) (UniProt Q9BYJ9).
T2 sequence (looked up, limits assumed): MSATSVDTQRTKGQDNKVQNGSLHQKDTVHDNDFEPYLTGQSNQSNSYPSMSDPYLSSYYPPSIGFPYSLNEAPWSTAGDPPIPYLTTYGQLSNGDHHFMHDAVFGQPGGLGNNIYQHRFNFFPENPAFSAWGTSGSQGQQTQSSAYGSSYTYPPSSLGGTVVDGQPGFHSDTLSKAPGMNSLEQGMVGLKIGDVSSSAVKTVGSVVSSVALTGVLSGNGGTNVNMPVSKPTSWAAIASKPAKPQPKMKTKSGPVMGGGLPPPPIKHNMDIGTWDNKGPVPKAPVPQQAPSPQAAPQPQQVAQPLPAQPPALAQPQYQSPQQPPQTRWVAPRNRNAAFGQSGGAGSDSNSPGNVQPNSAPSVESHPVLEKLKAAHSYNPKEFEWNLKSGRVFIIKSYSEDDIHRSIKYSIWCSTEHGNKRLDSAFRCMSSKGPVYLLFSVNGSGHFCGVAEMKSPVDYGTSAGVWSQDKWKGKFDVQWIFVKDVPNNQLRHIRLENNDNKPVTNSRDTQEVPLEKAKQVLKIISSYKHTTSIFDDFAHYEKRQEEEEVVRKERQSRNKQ
The experiment in a line: confocal nanoscanning (CONA), bead pull-down. The conditions noted are these: HeLa lysate, CONA: lysate in 1% Triton X-100/PBS, beads washed in 20 mM Hepes pH 7.5, 0.3 M NaCl, 0.01% Triton X-100, 5 mM MgCl2, 2 h RT, protein in a lysate after overexpression, protein details: GFP, label: 5' Cy5, 3' biotin-TEG.

The target of data set [3] is T3, FUS (recombinant, His-tagged) (human) (UniProt P35637).
T3 sequence (looked up, limits assumed): T1 sequence (looked up, limits assumed)
Nature of the data set: EMSA. The conditions noted are these: 250 nM RNA, 0-7.5 uM FUS (Methods: 7.0); m6A at positions 3, 9, 15, 22; EMSA: 50 mM Tris-HCl pH 7.5, 100 mM KCl, 2 mM MgCl2, 100 mM beta-mercaptoethanol, 0.1 mg/ml BSA, 30 min RT, 6% native gel in TBE; recombinant protein; protein details: His; label: 5' Cy5, 3' biotin-TEG. (Mobility shift assays separate free from complexed probe on a gel.)

Data set [4] deals with T4, YTHDF1 (Active Motif #31608) (UniProt Q9BYJ9).
T4 sequence (looked up, limits assumed): T2 sequence (looked up, limits assumed)
The experiment in a line: EMSA. The conditions noted are these: 0.64 uM YTHDF1, 250 nM RNA, positive control; m6A at positions 3, 9, 15, 22; EMSA: 50 mM Tris-HCl pH 7.5, 100 mM KCl, 2 mM MgCl2, 100 mM beta-mercaptoethanol, 0.1 mg/ml BSA, 30 min RT, 6% native gel in TBE; commercial protein; label: 5' Cy5, 3' biotin-TEG.

GGACUCGGACUUGGACUCUGGACUUUG [4xDRACH]: the binding result in data set [1] is given as “binds”; in data set [2] (differs significantly from m6A RNA), “binds more weakly”.

For “GGACUCGGACUUGGACUCUGGACUUUG [4xDRACH-m6A]”, the binding result was “binds more weakly” in data set [3]; “binds” in data set [4]; “binds more weakly” in data set [1] (m6A at positions 3, 9, 15, 22); “binds” in data set [2] (positive control, m6A at positions 3, 9, 15, 22).
